Laboratory results: publication PMC6858330
These are yes or no findings as the source states them, for the method shown. In cells and extracts the contact can be indirect. Some results given as binding are weak or reduced against the parent protein; the word gives no strength. For some of these results: Where a sequence is shown, tags or fusion partners need not be part of it.

Protein sequences, listed by entry. Tags and fused reporters are not part of them. Residues count along the entry.
UniProt Q15075, residues 1-209: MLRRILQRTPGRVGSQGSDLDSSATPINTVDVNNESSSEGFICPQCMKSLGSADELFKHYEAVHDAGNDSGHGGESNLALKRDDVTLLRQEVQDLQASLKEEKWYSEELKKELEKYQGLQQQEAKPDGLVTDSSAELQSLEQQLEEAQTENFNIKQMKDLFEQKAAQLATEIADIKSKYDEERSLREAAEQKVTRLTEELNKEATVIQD

Legend:
[1] = target: GST-tagged N terminal portion of human EEA1 (GST-EEA1NT) (human) (UniProt Q15075); experiment: pull-down; purified GST-EEA1NT tested on the GTP-bound (Q66L) and GDP-bound (S21N) forms of Vps21p (Supplementary Fig. 6c); source of the Vps21p mutants not told in the text shown
[2] = target: GST-tagged N terminal portion of human EEA1 (GST-EEA1NT) (human) (UniProt Q15075); experiment: pull-down; as a1, but with lysate of cells lacking the Vps21p-GEFs (vps9Δ muk1Δ); only the target purified
[3] = target: GST-tagged N terminal portion of human EEA1 (GST-EEA1NT) (human) (UniProt Q15075); experiment: pull-down; GST-EEA1NT bound to Glutathione-sepharose 4B incubated 1 h in the cold room with cleared lysate of yeast cells expressing GFP-Vps21p (wild type; also sac6Δ scp1Δ, arf1Δ, ent3Δ ent5Δ, vps9ΔCUE, vps9ΔCUE arf1Δ, vps9Δ); 20 mM Tris-HCl pH 7.5, 100 mM NaCl, 1 mM EDTA, 10 mM DTT; eluted with 10 mM glutathione; anti-GFP blot; only the target purified

| Binder | binding [1] | binding [2] | binding [3] |
| --- | --- | --- | --- |
| GTP-bound form of Vps21p (Vps21 Q66L) (protein, UniProt P36017 1-210) MNTSVTSIKLVLLGEAAVGKSSIVLRFVSNDFAENKEPTIGAAFLTQRVTINEHTVKFEIWDTAGLERFASLAPMYYRNAQAALVVYDVTKPQSFIKARHWVKELHEQASKDIIIALVGNKIDMLQEGGERKVAREEGEKLAEEKGLLFFETSAKTGENVNDVFLGIGEKIPLKTAEEQNSASNERESNNQRVDLNAANDGTSANSACSC | binds | – | – |
| GFP-Vps21p (protein, UniProt P36017 1-210) MNTSVTSIKLVLLGEAAVGKSSIVLRFVSNDFAENKEPTIGAAFLTQRVTINEHTVKFEIWDTAGQERFASLAPMYYRNAQAALVVYDVTKPQSFIKARHWVKELHEQASKDIIIALVGNKIDMLQEGGERKVAREEGEKLAEEKGLLFFETSAKTGENVNDVFLGIGEKIPLKTAEEQNSASNERESNNQRVDLNAANDGTSANSACSC | – | binds weakly | binds |
| GDP-bound form of Vps21p (Vps21 S21N) (protein, UniProt P36017 1-210) MNTSVTSIKLVLLGEAAVGKNSIVLRFVSNDFAENKEPTIGAAFLTQRVTINEHTVKFEIWDTAGQERFASLAPMYYRNAQAALVVYDVTKPQSFIKARHWVKELHEQASKDIIIALVGNKIDMLQEGGERKVAREEGEKLAEEKGLLFFETSAKTGENVNDVFLGIGEKIPLKTAEEQNSASNERESNNQRVDLNAANDGTSANSACSC | no binding | – | – |
